The subject of series [1] is MBP-CR3HD CUX1-Ancestral. The experiment in a line: EMSA. Conditions: 1 mM MgCl2, 1 ug poly(dI-dC). On the technique in general: A gel shift assay detects complexes by their altered migration in electrophoresis.
Series [2] relates to MBP-CR3HD CUX1-Δ4aa (Phalacrocorax harrisi (Galapagos cormorant)). The experiment in a line: EMSA. As to conditions: 1 mM MgCl2, 1 ug poly(dI-dC), shift equal to Ancestral.

The exact form of at least one protein or probe is not confirmed.

As for “TCGAGACGGTATCGATAAGCTTCTTTTC (double strand) [CUX1 CR3HD target probe]”, the binding result in series [1] and in series [2] was “binds” throughout.
